No constants are given. Whether binding was seen depends on the method and setting. Some results given as binding are weak or reduced against the parent protein; the word gives no strength.

For this test, the target named is SARS-CoV-2 Spike protein, S1 subunit (recombinant) (SARS-CoV-2) (UniProt P0DTC2). The test can be described thus: screening ELISA of dAb supernatants, anti-c-Myc HRP, n3.

B1: Clone 9 (VHH)
VHH: QVQLQESGGGLVQAGDSLRLSCAASGRTSDTMTIGWFRQAPGKEREFVASINWSGSTTYYADSVNERFTISRDDAKNTVYLQMNSLKPEDTAVYYCAAKRGVWTIKSAAADFASWGQGTQVTVSS
For B1, the binding entry is reported as “binds”.

The values above are taken from patent US20230293647A1.
